According to paper PMC9687537:
These are yes or no findings as the source states them, for the method shown. In cells and extracts the contact can be indirect. These calls come from enrichment with a bait or labelling near it, and not all partners need be listed. For some assays here: A no says only that the protein was not detected with the bait.

The chains behind the UniProt entries cited, without tags or fusion partners.
UniProt Q8NCM8: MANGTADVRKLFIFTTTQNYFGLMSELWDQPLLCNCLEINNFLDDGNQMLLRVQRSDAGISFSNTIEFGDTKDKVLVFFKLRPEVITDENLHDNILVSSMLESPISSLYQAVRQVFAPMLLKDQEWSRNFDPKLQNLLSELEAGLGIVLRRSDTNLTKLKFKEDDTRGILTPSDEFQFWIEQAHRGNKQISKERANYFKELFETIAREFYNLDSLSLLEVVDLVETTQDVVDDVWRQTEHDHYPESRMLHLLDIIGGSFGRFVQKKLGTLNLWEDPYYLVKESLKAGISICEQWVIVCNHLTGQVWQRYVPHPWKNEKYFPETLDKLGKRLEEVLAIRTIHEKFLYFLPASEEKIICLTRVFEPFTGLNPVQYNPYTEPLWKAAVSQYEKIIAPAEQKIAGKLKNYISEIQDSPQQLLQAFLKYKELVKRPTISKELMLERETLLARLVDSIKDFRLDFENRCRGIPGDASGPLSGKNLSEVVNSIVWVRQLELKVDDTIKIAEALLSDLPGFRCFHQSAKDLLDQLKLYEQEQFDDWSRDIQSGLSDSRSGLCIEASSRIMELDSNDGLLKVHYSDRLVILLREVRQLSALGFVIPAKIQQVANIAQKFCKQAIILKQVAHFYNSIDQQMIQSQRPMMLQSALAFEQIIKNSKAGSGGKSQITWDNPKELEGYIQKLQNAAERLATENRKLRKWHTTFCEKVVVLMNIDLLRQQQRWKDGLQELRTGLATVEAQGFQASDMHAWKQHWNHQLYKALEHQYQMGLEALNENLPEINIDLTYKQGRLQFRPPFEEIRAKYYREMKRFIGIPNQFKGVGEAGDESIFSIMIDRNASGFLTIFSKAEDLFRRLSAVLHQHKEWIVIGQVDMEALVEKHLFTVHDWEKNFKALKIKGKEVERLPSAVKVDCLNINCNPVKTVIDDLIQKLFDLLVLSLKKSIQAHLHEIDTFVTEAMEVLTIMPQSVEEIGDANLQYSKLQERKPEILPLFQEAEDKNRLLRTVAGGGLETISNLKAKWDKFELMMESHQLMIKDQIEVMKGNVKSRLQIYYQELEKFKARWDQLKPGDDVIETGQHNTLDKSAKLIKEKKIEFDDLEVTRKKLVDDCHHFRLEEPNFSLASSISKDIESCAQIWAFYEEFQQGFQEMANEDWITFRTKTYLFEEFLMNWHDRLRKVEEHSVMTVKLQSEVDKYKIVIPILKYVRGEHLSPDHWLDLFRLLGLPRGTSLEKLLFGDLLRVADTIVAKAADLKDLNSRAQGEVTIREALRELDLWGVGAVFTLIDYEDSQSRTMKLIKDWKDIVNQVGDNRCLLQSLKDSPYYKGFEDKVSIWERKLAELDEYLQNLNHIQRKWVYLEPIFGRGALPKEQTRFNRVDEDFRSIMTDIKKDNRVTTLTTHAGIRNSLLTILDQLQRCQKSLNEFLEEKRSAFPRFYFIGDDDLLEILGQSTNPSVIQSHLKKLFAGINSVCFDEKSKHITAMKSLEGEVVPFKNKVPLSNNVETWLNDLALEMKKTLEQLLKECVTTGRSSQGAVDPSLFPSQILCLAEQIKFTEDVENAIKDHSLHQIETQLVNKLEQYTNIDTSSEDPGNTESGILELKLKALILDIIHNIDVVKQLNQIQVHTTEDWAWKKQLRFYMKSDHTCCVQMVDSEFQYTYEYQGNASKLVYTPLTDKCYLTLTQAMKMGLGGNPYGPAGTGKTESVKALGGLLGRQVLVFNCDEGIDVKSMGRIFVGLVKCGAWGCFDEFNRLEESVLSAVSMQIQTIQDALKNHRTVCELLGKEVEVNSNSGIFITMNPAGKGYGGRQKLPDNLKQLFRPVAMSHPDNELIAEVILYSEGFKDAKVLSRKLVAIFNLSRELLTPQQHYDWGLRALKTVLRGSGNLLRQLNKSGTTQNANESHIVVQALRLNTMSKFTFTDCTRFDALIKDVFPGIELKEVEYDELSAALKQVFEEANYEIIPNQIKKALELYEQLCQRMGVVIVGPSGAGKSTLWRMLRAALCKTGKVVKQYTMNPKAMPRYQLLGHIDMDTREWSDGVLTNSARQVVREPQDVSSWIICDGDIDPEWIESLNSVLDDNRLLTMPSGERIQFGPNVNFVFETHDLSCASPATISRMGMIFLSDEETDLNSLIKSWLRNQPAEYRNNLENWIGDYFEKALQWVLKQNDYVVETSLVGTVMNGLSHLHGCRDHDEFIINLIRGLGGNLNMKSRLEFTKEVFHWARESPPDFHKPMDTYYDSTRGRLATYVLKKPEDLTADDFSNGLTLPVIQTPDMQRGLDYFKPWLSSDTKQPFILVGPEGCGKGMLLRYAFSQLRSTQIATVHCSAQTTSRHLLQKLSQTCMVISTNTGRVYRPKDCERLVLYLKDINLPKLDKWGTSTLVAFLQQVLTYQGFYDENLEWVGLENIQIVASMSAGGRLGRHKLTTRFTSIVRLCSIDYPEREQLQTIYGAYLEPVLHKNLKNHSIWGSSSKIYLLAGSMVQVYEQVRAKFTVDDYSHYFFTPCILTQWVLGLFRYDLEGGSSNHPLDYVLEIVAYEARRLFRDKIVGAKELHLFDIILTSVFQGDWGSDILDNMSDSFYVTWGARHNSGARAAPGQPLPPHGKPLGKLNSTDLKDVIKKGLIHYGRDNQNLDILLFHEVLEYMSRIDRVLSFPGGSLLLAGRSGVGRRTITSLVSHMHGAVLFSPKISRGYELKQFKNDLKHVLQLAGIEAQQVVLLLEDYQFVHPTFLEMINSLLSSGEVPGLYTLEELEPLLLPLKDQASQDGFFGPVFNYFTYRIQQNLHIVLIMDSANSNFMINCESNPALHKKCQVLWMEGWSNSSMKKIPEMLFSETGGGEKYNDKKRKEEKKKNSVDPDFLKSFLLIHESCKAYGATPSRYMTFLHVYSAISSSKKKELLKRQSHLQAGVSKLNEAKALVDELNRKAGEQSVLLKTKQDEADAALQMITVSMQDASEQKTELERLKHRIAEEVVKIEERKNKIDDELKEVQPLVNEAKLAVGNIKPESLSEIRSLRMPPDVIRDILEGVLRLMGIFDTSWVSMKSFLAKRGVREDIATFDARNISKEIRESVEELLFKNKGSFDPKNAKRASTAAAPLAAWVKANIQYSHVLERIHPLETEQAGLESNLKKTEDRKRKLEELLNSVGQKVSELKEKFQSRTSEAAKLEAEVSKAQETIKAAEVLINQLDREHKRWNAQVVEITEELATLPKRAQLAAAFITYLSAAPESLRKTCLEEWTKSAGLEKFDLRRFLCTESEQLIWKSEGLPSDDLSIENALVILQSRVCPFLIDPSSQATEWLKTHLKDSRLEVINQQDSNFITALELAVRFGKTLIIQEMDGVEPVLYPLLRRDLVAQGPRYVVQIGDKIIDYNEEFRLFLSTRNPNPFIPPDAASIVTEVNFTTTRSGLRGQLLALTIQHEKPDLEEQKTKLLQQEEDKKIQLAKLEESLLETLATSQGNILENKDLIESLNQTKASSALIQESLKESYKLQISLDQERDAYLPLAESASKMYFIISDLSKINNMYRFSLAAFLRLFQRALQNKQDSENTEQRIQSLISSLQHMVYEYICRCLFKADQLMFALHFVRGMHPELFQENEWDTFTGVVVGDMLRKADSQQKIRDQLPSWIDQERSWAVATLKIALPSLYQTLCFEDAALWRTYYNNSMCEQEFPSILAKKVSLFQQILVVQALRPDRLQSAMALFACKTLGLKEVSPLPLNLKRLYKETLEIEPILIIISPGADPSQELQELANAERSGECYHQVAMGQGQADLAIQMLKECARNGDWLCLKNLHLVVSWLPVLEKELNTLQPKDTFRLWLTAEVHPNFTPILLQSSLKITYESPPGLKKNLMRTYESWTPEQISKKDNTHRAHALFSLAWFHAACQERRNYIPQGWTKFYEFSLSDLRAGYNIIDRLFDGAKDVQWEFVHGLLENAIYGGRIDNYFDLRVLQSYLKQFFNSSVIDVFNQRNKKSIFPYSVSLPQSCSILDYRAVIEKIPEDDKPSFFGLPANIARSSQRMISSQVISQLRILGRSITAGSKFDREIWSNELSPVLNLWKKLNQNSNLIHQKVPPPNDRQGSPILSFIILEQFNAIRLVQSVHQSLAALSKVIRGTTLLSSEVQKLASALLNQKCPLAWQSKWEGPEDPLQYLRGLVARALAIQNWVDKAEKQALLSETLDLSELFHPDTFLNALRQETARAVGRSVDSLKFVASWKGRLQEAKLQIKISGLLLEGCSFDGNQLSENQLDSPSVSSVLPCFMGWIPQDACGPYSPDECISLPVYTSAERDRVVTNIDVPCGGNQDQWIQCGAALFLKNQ
UniProt Q9NP97: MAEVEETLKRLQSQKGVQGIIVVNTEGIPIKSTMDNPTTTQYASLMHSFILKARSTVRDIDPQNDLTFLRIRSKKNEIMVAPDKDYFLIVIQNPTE
UniProt P63172: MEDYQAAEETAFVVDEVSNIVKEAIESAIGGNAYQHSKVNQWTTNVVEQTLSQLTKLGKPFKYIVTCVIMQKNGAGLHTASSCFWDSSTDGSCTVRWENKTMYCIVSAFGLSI
UniProt Q8WW35: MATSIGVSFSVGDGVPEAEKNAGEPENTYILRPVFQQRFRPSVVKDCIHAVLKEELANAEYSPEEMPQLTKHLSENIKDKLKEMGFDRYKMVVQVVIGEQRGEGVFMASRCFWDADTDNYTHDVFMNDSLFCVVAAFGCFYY
UniProt P51808: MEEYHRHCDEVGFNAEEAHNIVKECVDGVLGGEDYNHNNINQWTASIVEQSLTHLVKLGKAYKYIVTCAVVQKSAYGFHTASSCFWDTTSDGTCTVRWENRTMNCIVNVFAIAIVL
UniProt Q8TCX1: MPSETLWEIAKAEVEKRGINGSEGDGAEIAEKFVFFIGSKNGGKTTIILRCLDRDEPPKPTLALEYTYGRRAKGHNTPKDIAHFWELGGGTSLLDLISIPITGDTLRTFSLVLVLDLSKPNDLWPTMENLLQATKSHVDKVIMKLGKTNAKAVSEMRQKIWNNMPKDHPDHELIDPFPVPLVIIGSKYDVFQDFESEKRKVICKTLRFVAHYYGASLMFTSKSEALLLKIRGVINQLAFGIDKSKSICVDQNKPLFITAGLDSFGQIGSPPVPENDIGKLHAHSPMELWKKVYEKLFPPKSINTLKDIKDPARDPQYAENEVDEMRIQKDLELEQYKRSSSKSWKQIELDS
UniProt P63167: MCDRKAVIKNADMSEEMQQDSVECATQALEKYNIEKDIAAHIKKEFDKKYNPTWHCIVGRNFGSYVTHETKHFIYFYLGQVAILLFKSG
UniProt Q8TF09: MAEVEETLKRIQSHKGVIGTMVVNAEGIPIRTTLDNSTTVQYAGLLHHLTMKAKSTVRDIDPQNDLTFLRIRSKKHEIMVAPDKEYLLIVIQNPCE
UniProt Q8WVS4: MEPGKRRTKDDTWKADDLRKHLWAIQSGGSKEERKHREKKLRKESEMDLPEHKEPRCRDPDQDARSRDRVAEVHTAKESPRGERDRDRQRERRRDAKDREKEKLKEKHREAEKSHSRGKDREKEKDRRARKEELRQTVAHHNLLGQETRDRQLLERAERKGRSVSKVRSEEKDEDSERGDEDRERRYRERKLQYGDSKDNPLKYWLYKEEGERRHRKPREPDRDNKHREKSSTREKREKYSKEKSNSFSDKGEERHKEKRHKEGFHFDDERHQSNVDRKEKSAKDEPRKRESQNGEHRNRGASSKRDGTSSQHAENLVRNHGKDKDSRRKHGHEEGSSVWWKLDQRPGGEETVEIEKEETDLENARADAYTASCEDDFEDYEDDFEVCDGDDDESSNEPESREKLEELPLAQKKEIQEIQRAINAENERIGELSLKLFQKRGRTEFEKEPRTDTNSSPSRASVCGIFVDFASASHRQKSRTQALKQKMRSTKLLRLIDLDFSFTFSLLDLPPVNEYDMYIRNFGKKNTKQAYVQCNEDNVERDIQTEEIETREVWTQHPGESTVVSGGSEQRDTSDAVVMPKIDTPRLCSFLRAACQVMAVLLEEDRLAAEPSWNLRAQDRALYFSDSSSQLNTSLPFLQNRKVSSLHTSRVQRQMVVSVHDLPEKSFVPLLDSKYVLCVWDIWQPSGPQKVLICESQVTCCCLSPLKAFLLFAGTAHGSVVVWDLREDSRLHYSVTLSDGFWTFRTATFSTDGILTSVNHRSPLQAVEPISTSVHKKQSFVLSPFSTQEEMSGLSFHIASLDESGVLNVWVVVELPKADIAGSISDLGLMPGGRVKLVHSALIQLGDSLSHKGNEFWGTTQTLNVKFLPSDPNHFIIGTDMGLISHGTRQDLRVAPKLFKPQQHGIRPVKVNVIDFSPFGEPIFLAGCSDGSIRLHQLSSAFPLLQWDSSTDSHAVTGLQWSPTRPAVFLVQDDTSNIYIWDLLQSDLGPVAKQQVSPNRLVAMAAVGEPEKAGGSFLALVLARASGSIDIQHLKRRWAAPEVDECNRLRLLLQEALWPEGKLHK

Assays:
GFP–WDR34-WT (human) = GFP–WDR34-WT (human) (UniProt Q96EX3); experiment: affinity purification with mass spectrometry; GFP-Trap beads on clarified lysates of RPE1 WDR34 KO cells stably expressing GFP proteins, serum-starved 24 h; cells cross-linked with 1 mM DSP before lysis; 16-plex TMT labelling; abundances normalised to WDR34 (GFP only: to GFP) and compared with GFP–WDR34-WT; three independent experiments (PXD032758)
[1] = target: GFP–WDR34 p.R206C (human) (UniProt Q96EX3); experiment: as above
[2] = target: GFP–WDR34 p.P390L (human) (UniProt Q96EX3); experiment: as above
[3] = target: GFP–WDR34 p.T354M (human) (UniProt Q96EX3); experiment: as above
[4] = target: GFP–WDR34-p.Q158* (human) (UniProt Q96EX3); experiment: as above
[5] = target: GFP–WDR34 p.C148F (human) (UniProt Q96EX3); experiment: as above
[6] = target: GFP–WDR34 p.R447Q (human) (UniProt Q96EX3); experiment: as above
[7] = target: GFP–WDR34 p.R447W (human) (UniProt Q96EX3); experiment: as above
GFP–WDR34 p.A22V (human) = GFP–WDR34 p.A22V (human) (UniProt Q96EX3); experiment: as above
[8] = target: GFP–WDR34 p.A341V (human) (UniProt Q96EX3); experiment: as above
[9] = target: GFP–WDR34 p.K436R (human) (UniProt Q96EX3); experiment: as above
[10] = target: GFP–WDR34 p.R182W (human) (UniProt Q96EX3); experiment: as above
[11] = target: GFP–WDR34 p.S410I (human) (UniProt Q96EX3); experiment: as above
[12] = target: GFP–WDR34 p.G393S (human) (UniProt Q96EX3); experiment: as above
[13] = target: GFP–WDR34-p.Q158* (human) (UniProt Q96EX3); experiment: affinity purification with mass spectrometry; GFP immunoprecipitates of GFP-WDR34-Gln158* and GFP-WDR34-FL cells; abundance ratios of dynein-2 components in Table S3; two independent experiments (PXD025686)

Row | Substance | binding (GFP–WDR34-WT (human)) | binding [1] | binding [2] | binding [3] | binding [4] | binding [5] | binding [6] | binding [7] | binding (GFP–WDR34 p.A22V (human)) | binding [8] | binding [9] | binding [10] | binding [11] | binding [12] | binding [13]
1 | DYNC2H1 (from UniProt Q8NCM8 1-4307) | binds | binds | binds | binds | binds | binds | binds | binds | binds | binds | binds | binds | binds | binds | –
2 | DYNLRB1 (from UniProt Q9NP97 1-96) | binds | binds | binds | binds | binds | binds | binds | binds | binds | binds | binds | binds | binds | binds | –
3 | DYNLT1 (from UniProt P63172 1-113) | binds | binds | binds | binds | binds | binds | binds | binds | binds | binds | binds | binds | binds | binds | –
4 | DYNLT2B (from UniProt Q8WW35 1-142) | binds | binds | binds | binds | binds | binds | binds | binds | binds | binds | binds | binds | binds | binds | –
5 | DYNLT3 (from UniProt P51808 1-116) | – | no binding | no binding | no binding | no binding | no binding | no binding | no binding | no binding | no binding | no binding | no binding | no binding | no binding | –
6 | LIC3 (from UniProt Q8TCX1 1-351) | binds | binds | binds | binds | binds | binds | binds | binds | binds | binds | binds | binds | binds | binds | –

Now from value to substance:

Row | binding (GFP–WDR34-WT (human)) | binding [1] | binding [2] | binding [3] | binding [4] | binding [5] | binding [6] | binding [7] | binding (GFP–WDR34 p.A22V (human)) | binding [8] | binding [9] | binding [10] | binding [11] | binding [12] | binding [13] | Substance
7 | binds | binds | binds | binds | binds | binds | binds | binds | binds | binds | binds | binds | binds | binds | binds | DYNLL1 (from UniProt P63167 1-89)
8 | – | no binding | no binding | no binding | no binding | no binding | no binding | no binding | no binding | no binding | no binding | no binding | no binding | no binding | – | DYNLRB2 (from UniProt Q8TF09 1-96)
9 | binds | binds | binds | binds | binds | binds | binds | binds | binds | binds | binds | binds | binds | binds | – | WDR60 (from UniProt Q8WVS4 1-1066)
